Where a name gives a salt, the structure may show the parent alone. Some of the results follow. Hit calls seldom repeat between salt and free forms of one compound.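 Kinases, fused to nanoluciferase, were expressed in K562 cells; luminescence was measured every 4 h from 2 to 18 h as percent of control (DMSO = 100%, positive control = 0%). A time point is decreased if signal falls significantly (2 sigma). Hits were called by the authors by a rule that is not shown; the count of time points alone does not decide it.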
Tests used:
Conditions in all cases: K562; 2-18 h
YES1 = YES1 (UniProt P07947); assay: number of time points (of 5) at which kinase-Nluc abundance scored as decreased, DMSO-normalised (count); higher = more persistent destabilization
ZAK = ZAK (UniProt Q9NYL2); assay: as above
ZAP70 = ZAP70 (UniProt P43403); assay: as above
CDK4 = CDK4 (UniProt P11802); assay: number of time points (of 4; 2 h point missing) at which kinase-Nluc abundance scored as decreased, DMSO-normalised (count); higher = more persistent destabilization
CDK7 = CDK7 (UniProt P50613); assay: as above
CDK9 = CDK9 (UniProt P50750); assay: as above

Protein sequences, listed by entry. Tags and fused reporters are not part of them. Lines headed by an entry give the natural chain unless they say otherwise; changes in a name come on top.
UniProt P07947, whole entry, looked up: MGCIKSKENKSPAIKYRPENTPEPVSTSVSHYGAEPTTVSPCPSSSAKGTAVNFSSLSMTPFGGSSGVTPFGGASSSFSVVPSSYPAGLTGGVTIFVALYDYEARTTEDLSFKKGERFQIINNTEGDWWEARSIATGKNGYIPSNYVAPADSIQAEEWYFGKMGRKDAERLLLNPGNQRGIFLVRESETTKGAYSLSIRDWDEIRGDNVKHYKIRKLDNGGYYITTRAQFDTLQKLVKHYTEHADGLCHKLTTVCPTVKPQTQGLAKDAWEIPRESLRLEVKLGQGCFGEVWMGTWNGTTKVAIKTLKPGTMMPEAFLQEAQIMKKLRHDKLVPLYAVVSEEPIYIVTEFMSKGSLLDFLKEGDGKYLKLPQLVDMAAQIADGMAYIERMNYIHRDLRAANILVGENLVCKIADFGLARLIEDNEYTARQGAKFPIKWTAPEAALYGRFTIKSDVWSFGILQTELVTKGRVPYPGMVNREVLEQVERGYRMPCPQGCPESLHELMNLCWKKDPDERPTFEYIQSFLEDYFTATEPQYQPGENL
UniProt P43403: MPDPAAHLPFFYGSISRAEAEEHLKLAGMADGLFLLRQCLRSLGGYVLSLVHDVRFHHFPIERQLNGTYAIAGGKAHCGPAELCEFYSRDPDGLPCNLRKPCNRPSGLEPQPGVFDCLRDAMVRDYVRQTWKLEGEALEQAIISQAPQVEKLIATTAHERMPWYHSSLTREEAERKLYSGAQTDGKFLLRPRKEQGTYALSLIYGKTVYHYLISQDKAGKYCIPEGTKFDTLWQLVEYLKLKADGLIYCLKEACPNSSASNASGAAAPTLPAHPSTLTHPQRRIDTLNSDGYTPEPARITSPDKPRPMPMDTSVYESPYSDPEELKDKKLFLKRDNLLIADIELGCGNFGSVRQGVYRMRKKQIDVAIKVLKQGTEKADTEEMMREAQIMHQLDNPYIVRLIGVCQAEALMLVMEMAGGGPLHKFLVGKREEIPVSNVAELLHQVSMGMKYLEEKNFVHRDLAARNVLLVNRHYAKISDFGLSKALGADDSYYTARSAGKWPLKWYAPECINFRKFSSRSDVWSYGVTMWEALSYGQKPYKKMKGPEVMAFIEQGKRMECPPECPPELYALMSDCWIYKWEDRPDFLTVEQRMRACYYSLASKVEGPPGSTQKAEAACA
UniProt P11802: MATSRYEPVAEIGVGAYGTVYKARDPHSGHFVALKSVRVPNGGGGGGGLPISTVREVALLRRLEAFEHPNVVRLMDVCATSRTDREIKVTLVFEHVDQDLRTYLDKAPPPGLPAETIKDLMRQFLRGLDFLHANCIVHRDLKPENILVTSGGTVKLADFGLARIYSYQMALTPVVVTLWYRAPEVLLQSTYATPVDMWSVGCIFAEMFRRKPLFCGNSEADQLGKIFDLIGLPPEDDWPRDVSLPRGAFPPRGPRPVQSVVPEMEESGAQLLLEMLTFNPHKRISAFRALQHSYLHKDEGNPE
UniProt P50613: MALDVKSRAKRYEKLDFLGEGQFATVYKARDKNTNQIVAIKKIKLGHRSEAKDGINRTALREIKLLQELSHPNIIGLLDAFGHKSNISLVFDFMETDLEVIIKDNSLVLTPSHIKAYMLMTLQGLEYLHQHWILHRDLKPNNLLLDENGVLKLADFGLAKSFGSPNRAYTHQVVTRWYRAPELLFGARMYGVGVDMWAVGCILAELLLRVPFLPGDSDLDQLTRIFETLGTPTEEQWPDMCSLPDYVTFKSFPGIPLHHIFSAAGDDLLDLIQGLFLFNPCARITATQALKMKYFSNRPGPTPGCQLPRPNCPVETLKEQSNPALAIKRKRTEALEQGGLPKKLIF
UniProt P50750, whole entry: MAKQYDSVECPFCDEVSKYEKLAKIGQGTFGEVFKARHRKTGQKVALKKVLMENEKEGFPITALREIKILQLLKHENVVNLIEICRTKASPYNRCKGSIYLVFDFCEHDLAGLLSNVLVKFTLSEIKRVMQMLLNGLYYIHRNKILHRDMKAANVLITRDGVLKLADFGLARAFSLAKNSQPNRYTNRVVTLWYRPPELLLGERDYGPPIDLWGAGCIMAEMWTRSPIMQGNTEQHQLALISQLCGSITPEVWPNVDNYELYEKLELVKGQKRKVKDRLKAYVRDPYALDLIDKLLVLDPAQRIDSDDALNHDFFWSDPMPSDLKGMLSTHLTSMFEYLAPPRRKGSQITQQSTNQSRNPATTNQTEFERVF

SMILES	number of time points (YES1)	number of time points (ZAK)	number of time points (ZAP70)	number of time points (CDK4)	number of time points (CDK7)	number of time points (CDK9)
Cc1cc(F)c(Nc2ncnc3cc(OCc4ccccc4)ccc23)cc1O (10 µM)	0	0	0	0	0	0
Cc1cccc(-c2[nH]c(C(C)(C)C)nc2-c2ccc3c(c2)OCO3)n1 (2.5 µM)	0	0	0	0	0	0
COc1ccc(C2CC(c3ccc(Cl)cc3)=NN2c2nc(-c3ccncc3)cs2)cc1 (configuration not stated) [mTOR inhibitor-8] (10 µM)	0	0	0	0	0	0
CC(=O)Nc1nc(C)c(-c2cc3c(c(S(C)(=O)=O)c2)C(=O)N([C@@H](C)C2CC2)C3)s1 (2.5 µM)	0	0	0	0	0	0
COc1ccc2c(c1)C[C@H](C(=O)Nc1ccc(-c3cn[nH]c3)cc1OCCN(C)C)CO2 [Chroman 1] (10 µM)	0	0	0	0	0	0
CN1CCN(c2ccc(NC(=O)c3ccc(C#N)o3)c(N3CCCCC3)c2)CC1 (10 µM)	0	0	0	0	0	1
O=C(CC(c1ccccc1)C(C(=O)O)C(=O)O)c1ccc(C(F)(F)F)cc1 (configuration not stated) (10 µM)	0	0	0	0	0	0
Cc1ccc(-c2csc(Cn3nc(CC4OCCCO4)c4ccccc4c3=O)n2)cc1 (10 µM)	0	0	0	0	0	0
COc1ccc(COc2cc3oc(=O)c4cc(C(C)O)ccc4c3cc2OC)cc1 (configuration not stated) [Palomid 529] (2.5 µM)	0	0	0	0	0	0
CC(C)(C)NS(=O)(=O)c1cncc(-c2cc(F)c3nc(N)nn3c2)c1 (10 µM)	0	0	0	0	0	0
COC[C@H]1Cn2cc(-c3nc(Nc4ccnn4C)ncc3C)nc2C(=O)N1Cc1ccc(F)c(F)c1 (10 µM)	0	0	0	0	0	0
CNC(=O)c1ccc(-c2cnc3ncc(Cc4ccc5ncccc5c4)n3n2)cc1F [Capmatinib] (10 µM)	0	0	0	0	0	0
CS(=O)(=O)N1CCc2c(-c3cnc(N)nc3)nc(N3CCOCC3)nc21 (10 µM)	0	0	0	0	1	0
CNCCOc1ccccc1C(C)(C)Nc1nccn(-c2cc(C(=O)NC3CC3)ccc2C)c1=O [p38α inhibitor 2] (10 µM)	0	0	0	0	0	0
CC(C)=CCC/C(C)=C/CC/C(C)=C/CSc1ccccc1C(=O)O [Salirasib] (10 µM)	0	0	0	0	0	0
O=C(O)/C=C/c1cc(Br)c(Br)c(Br)c1Br (10 µM)	0	0	0	0	0	0

SMILES	number of time points (YES1)	number of time points (ZAK)	number of time points (ZAP70)	number of time points (CDK4)	number of time points (CDK7)	number of time points (CDK9)
OCCC#Cc1nc(-c2ccc(F)cc2)c(-c2ccncc2)n1CCCc1ccccc1 (2.5 µM)	0	0	0	0	0	0
C=C[C@H]1[C@H](O[C@@H]2O[C@H](CO)[C@@H](O)[C@H](O)[C@H]2O)OC=C(C(=O)OC)[C@H]1CCOC(=O)c1cc(O)c(O)c(O)c1 [Cornuside] (10 µM)	0	0	0	0	0	0
O=C(NCc1cccc(O)c1)c1cc2cc(F)ccc2[nH]1 (10 µM)	0	0	0	0	0	0
CN(C)C(=O)c1cc2cnc(Nc3ccc(NC(=O)C4(C(=O)Nc5ccc(F)cc5)CC4)cc3)nc2n1C1CCCC1 (2 µM)	0	0	0	0	0	0
Cc1cc(Nc2ncc(Cl)c(Nc3ccccc3S(=O)(=O)C(C)C)n2)c(OC(C)C)cc1C1CCN(CC(=O)NCCNc2cccc3c2C(=O)N(C2CCC(=O)NC2=O)C3=O)CC1 (configuration not stated) (10 µM)	0	0	0	0	0	0
O=c1sn(-c2cccc3ccccc23)c(=O)n1Cc1ccccc1 [Tideglusib] (10 µM)	0	0	0	0	0	0
NC(=O)c1cccc2c(N[C@H](CN3CCC3)c3ccc(Cl)c(C(F)(F)F)c3)ncnc12 (10 µM)	0	0	0	0	0	0
COc1c(OCCCN2CCOCC2)ccc2c3n(c(=NC(=O)c4cnc(N)nc4)nc12)CCN3 [Copanlisib (dihydrochloride)] (10 µM)	2	2	0	0	3	4
CC[C@@H]1CN(C(=O)NCC(F)(F)F)C[C@@H]1c1cnc2cnc3[nH]ccc3n12 [Upadacitinib] (10 µM)	0	0	0	0	0	0
CC(C)(C)c1ccc(C(=O)Nc2cn3cc(-n4ccnc4)ccc3n2)cc1 (10 µM)	0	0	0	0	0	0
CCN1C(C)(C)CC(Oc2ccc(C(=O)Nc3ccc(NC(=O)Nc4cc(C(C)(C)C)on4)cc3)nc2)CC1(C)C (10 µM)	0	0	0	0	0	0
C=CC(=O)N[C@H]1CCOC[C@H]1Nc1ncc2cc(-c3c(Cl)c(OC)cc(OC)c3Cl)ccc2n1 [Fisogatinib] (10 µM)	0	0	0	0	0	0
O=C(Nc1ncc(SCCN2CCCC2)s1)[C@]1(c2ccc(S(=O)(=O)C3CC3)cc2)C[C@H]1C1CCCCC1 [Globalagliatin] (2.5 µM)	0	0	0	0	0	0
Cn1cc(-c2cn3nccc3c(-c3cnn([C@]4(CC#N)C[C@@H](C#N)C4)c3)n2)cn1 (10 µM)	0	0	0	0	0	0
O=C1NC(=O)C(c2ccccc2[N+](=O)[O-])=C1Nc1ccc(O)c(Cl)c1 (10 µM)	0	0	0	0	0	0
CC(C)Cn1cc(C#N)c2cc(Oc3ccc(NC(=O)[C@@H]4CCCN4)cc3)ccc21 (10 µM)	0	0	0	0	0	0

An excerpt from above in order of SMILES length, low to high.
SMILES	number of time points (YES1)	number of time points (ZAK)	number of time points (ZAP70)	number of time points (CDK4)	number of time points (CDK7)	number of time points (CDK9)
O=C(NCc1cccc(O)c1)c1cc2cc(F)ccc2[nH]1 (10 µM)	0	0	0	0	0	0
O=c1sn(-c2cccc3ccccc23)c(=O)n1Cc1ccccc1 [Tideglusib] (10 µM)	0	0	0	0	0	0
OCCC#Cc1nc(-c2ccc(F)cc2)c(-c2ccncc2)n1CCCc1ccccc1 (2.5 µM)	0	0	0	0	0	0
CC(C)Cn1cc(C#N)c2cc(Oc3ccc(NC(=O)[C@@H]4CCCN4)cc3)ccc21 (10 µM)	0	0	0	0	0	0
COc1c(OCCCN2CCOCC2)ccc2c3n(c(=NC(=O)c4cnc(N)nc4)nc12)CCN3 [Copanlisib (dihydrochloride)] (10 µM)	2	2	0	0	3	4
NC(=O)c1cccc2c(N[C@H](CN3CCC3)c3ccc(Cl)c(C(F)(F)F)c3)ncnc12 (10 µM)	0	0	0	0	0	0
O=C(Nc1ncc(SCCN2CCCC2)s1)[C@]1(c2ccc(S(=O)(=O)C3CC3)cc2)C[C@H]1C1CCCCC1 [Globalagliatin] (2.5 µM)	0	0	0	0	0	0
Cc1cc(Nc2ncc(Cl)c(Nc3ccccc3S(=O)(=O)C(C)C)n2)c(OC(C)C)cc1C1CCN(CC(=O)NCCNc2cccc3c2C(=O)N(C2CCC(=O)NC2=O)C3=O)CC1 (configuration not stated) (10 µM)	0	0	0	0	0	0

— the supplement of paper PMC12823440, “Inhibitors supercharge kinase turnover through native proteolytic circuits” (Nature, 2025)
